Measured values from PubChem BioAssay AID504467 (National Center for Advancing Translational Sciences (NCATS), 2011).
Out of some 330,000 compounds screened, about 7,700 (2.3%) were called active. Inconclusive means that the source gave no clear call. Such entries were picked first, then a sample of the others. The call rests on the fitted dose curve; in most records, active means well fitted inhibition curve with a large enough effect; inconclusive means small, poorly fitted or top-dose-only effect, or effect the other way; inactive means flat fitted curve, though single readings scatter. Where the call is inconclusive, the potency comes from a doubtful curve fit.

Assay: qHTS screen for small molecules that inhibit ELG1-dependent DNA repair in human embryonic kidney (HEK293T) cells expressing luciferase-tagged ELG1; further: nearly all actives have a fitted effect of over 55% in size
Conditions: HEK293T ELG1-luciferase reporter, luminescence, 16 h, DNA damage induced by 5-fluorouridine; series mostly up to 46.1 µM
Procedure, shortened: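 Step one: seed 2,000 cells per well. Step two: pin-transfer compound or DMSO alongside 5-fluorouridine. Step three: incubate 16 hr, 37 °C, 5% CO2. Step four: add ONE-Glo, wait 30 min, read luminescence.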
Potency means the concentration at half of the fitted maximal effect.

Structure (SMILES)	Potency
Cc1c(C(=O)Nc2ccccn2)oc2ccccc12	inconclusive: 4.11 µM [activator, full curve]
CCn1nnc(-c2ccccc2NC(=O)c2cc(OC)cc(OC)c2)n1	inconclusive: 18.4 µM [inhibitor, single point]
Oc1ccc(N=Nc2n[nH]c(-c3ccccc3)n2)cc1	inconclusive: 5.8 µM [activator, partial curve]
Oc1c(N=NC(=S)Nc2ccccc2F)c2ccccc2n1Cc1ccc(F)cc1	active: 5.17 µM
CCN1CCN(C(=O)c2ccc(COc3cccc(Cl)c3)o2)CC1	inconclusive: 23.1 µM [activator, partial curve, poor fit]
c1ccc(-c2nnnc3ccccc23)cc1	inconclusive: 16.4 µM [inhibitor, partial curve, poor fit]
CC(=O)c1c(C)[nH]c(C(=O)COC(=O)c2c(-c3ccccc3)noc2C)c1C	active: 20.6 µM
CC(=O)c1ccc(-n2c(C)c(C(C)=O)c3cc(O)ccc32)cc1	active: 2.06 µM
CC/C(=N\NC(=O)c1c[nH]c2ccccc12)c1cccs1	inconclusive: 10.3 µM [activator, partial curve]
O=c1c2ccccc2nc2ccccn12	inconclusive: 20.6 µM [activator, partial curve]
Cc1ccc(-c2cc(=O)c3cc(C)ccc3[nH]2)cc1	inconclusive: 0.411 µM [activator, full curve]
Cc1sc2nc3c4ccccc4c(NCc4ccco4)nn3c(=O)c2c1C	inconclusive: 2.31 µM [activator, full curve, poor fit]
COc1cccc(-n2nnnc2SCC(=O)Nc2ccc3c(c2)OCCO3)c1	inactive
COc1ccc2ccccc2c1/C=N/NC(=S)Nc1cc(S(=O)(=O)N2CCOCC2)ccc1N1CCOCC1	active: 1.64 µM
CC1CCN(C(=O)c2cc(-c3ccc4c(c3)OCO4)on2)CC1	inconclusive: 4.61 µM [activator, partial curve]
COc1ccc(C(=O)CC(Nc2ccc([N+](=O)[O-])cc2)c2ccc(Cl)cc2)cc1 (configuration not stated)	active: 16.4 µM
O=C(COc1cccc(Cl)c1)Nc1nc(-c2ccc(S(=O)(=O)N3CCOCC3)cc2)cs1	active: 23.1 µM
CC(C)(C)OC(=O)NCCCC[C@H](NC(=O)c1nc[nH]c1C(=O)NCc1ccc(CNC(=O)OC(C)(C)C)cc1)C(=O)OC(C)(C)C	inconclusive: 23.1 µM [inhibitor, single point]
Nc1c(C(=O)c2ccccc2)oc2ccccc12	inconclusive: 20.6 µM [activator, single point]
O=C(CCNC(=O)Cn1cnc2ccccc2c1=O)NCCC1=CCCCC1	inactive
COc1ccc(N2C(=O)[C@@H]3[C@H](C2=O)[C@H]2c4ccccc4C=CN2[C@@H]3C(C)=O)cc1	inactive
COc1ccc(N2CC(O)(c3ccc(OC(F)F)cc3)[N+]3=C2CCCC3)cc1 (configuration not stated)	inactive
O=C(NC(=S)NCc1cccnc1)c1ccccc1[N+](=O)[O-]	inconclusive: 29.1 µM [inhibitor, single point]
COCc1cc(C)nc2sc3c(=O)n(-c4cccc5ccccc45)nnc3c12	inconclusive: 7.31 µM [inhibitor, partial curve, poor fit]

Structure (SMILES)	Potency
CCOC(=O)N1CCN(S(=O)(=O)c2cccs2)CC1	inactive
CC1C=CC(C)C(C(=O)O)C1C(=O)O (configuration not stated)	inactive
Cc1cc(C)n(C(=O)c2ccc(C)c(S(=O)(=O)N3CCCC3)c2)n1	inactive
CSc1nc(N)nc(C2CC2)n1	inconclusive: 29.1 µM [activator, single point]
Cc1cc(C)n(C(=O)c2ccccc2[N+](=O)[O-])n1	inconclusive: 20.6 µM [activator, partial curve, poor fit]
N/C(=N\O)c1ccc(Cl)cc1Cl	inactive
COc1ccc(C)cc1NS(=O)(=O)c1ccc2c(c1)oc(=O)n2C	inconclusive: 31.6 µM [activator, single point]
CCN(C(=O)CN1C(=O)NC(c2ccccc2)(c2ccc(C)c(C)c2)C1=O)C1CCS(=O)(=O)C1 (configuration not stated)	inconclusive: 29.1 µM [activator, single point]
CCOc1ccc(OCC)c(NC(=O)C2CCN(S(=O)(=O)c3c(C)noc3C)CC2)c1	inconclusive: 29.1 µM [inhibitor, single point]
CCCn1c2ccccc2c2cnn(CC(=O)NC3CCCCC3)c(=O)c21	inactive
N#CCc1nc(CSc2nc3ccccc3s2)cs1	inconclusive: 14.6 µM [activator, partial curve]
CN(C)CCCN1c2ccccc2Sc2ccccc21	inactive
O=C(Nc1ccc(Nc2ccccc2)cc1)c1c(F)c(F)c(F)c(F)c1F	inconclusive: 7.3 µM [inhibitor, partial curve, poor fit]
COc1cc2ccccc2cc1C(=O)N(CCN(C)C)c1nc2c(F)cccc2s1	inactive
CC(=O)Nc1ccc(S(=O)(=O)NC2(C(F)(F)F)N=C(c3ccccc3)NC2=O)cc1 (configuration not stated)	inconclusive: 0.58 µM [activator, full curve, poor fit]
O=C(CN1C(=O)C(=O)N(Cc2ccccc2)C1=O)c1ccc[nH]1	inconclusive: 14.6 µM [activator, partial curve]
Cc1ccc(Nc2c(-c3ccc(N4CCOCC4)cc3)nc3ncccn23)cc1C	inconclusive: 29.1 µM [inhibitor, single point]
COc1nc(-c2ccc(Cl)cc2)nnc1C	inactive
CCCCN(CCCNC(=O)C1CCN(S(=O)(=O)CC)CC1)c1ccccc1	inconclusive: 18.4 µM [inhibitor, single point]
Cc1cc(N/N=C/c2cccc(Cl)c2)nc(NCc2ccccc2)n1	inactive
O=C(OCC(=O)N1CCCC1=O)c1cc(S(=O)(=O)N2CCOCC2)ccc1F	inconclusive: 1.64 µM [activator, partial curve]
COc1ccc(NC(=O)c2c[nH]n3c(=O)cc(C4CCN(C(=O)OC(C)(C)C)CC4)nc23)cc1Cl	inconclusive: 5.8 µM [inhibitor, partial curve]
Cn1c(SCC(=O)c2ccccc2)nnc1-c1ccncc1	inconclusive: 25.9 µM [activator, partial curve, poor fit]
CCOC(=O)[C@@H]1[C@H]2COc3ccccc3[C@@H]2N2C(=O)N(c3ccc(F)cc3)C(=O)[C@@]12C	inactive

A different layout for some results above:
Structure (SMILES) | Potency
CCOC(=O)N1CCN(S(=O)(=O)c2cccs2)CC1 | inactive
Cc1cc(C)n(C(=O)c2ccccc2[N+](=O)[O-])n1 | inconclusive: 20.6 µM [activator, partial curve, poor fit]
COc1ccc(C)cc1NS(=O)(=O)c1ccc2c(c1)oc(=O)n2C | inconclusive: 31.6 µM [activator, single point]
Cc1cc(N/N=C/c2cccc(Cl)c2)nc(NCc2ccccc2)n1 | inactive
CCOC(=O)[C@@H]1[C@H]2COc3ccccc3[C@@H]2N2C(=O)N(c3ccc(F)cc3)C(=O)[C@@]12C | inactive

Continued:

Structure (SMILES)	Potency
COC(=O)[C@H](Cc1ccccc1)NC(=O)N(C)Cc1ccccc1	inconclusive: 20.6 µM [activator, single point]
CCC(=O)Nc1ccc(-c2csc(C)n2)cc1	inconclusive: 20.6 µM [activator, partial curve]
O=C(Nc1ccc(N2CCN(C(=O)c3ccc(Cl)cc3)CC2)cc1)c1cc2ccccc2o1	inconclusive: 4.61 µM [inhibitor, partial curve]
CCCN(CCC)CCCNC(=O)c1cn(CC)c2ccc(S(=O)(=O)N3CCc4ccccc4C3)cc2c1=O	inactive
COc1cccc(NS(=O)(=O)c2ccc(OC)c(OC)c2)c1	inconclusive: 18.4 µM [inhibitor, partial curve, poor fit]
O=C(NCCc1cccc(Cl)c1)c1ccc2c(c1)OCO2	inconclusive: 1.3 µM [activator, partial curve]
COc1ccc(C(F)(F)F)cc1N/C=C/c1nnnn1-c1ccc2ccccc2c1	inactive
O=C(NC(=S)Nc1ccc(N2CCOCC2)cc1)c1cccs1	inconclusive: 5.17 µM [activator, partial curve]
COc1ccc(N2CCN(C(=O)c3cn(Cc4ccccc4)nc3-c3cccnc3)CC2)cc1	inactive
CCOC(=O)c1cnc2c(C)cccc2c1Nc1ccc(N2CCOCC2)cc1	inconclusive: 18.4 µM [inhibitor, single point]
O=C(Cn1cnc(S(=O)(=O)N2CCCCC2)c1)NCc1ccco1	inactive
O=C(N/N=C/c1ccc2nccnc2c1)c1cccc([N+](=O)[O-])c1	inactive
O=C(Nc1ccccc1)Nc1nnc(-c2ccccc2)o1	inactive
O=C(CSc1cn(CCNC(=O)c2cccs2)c2ccccc12)NC1CCCC1	inconclusive: 18.4 µM [inhibitor, single point]
CN(CC(=O)Nc1ccccc1C(F)(F)F)C(=O)COc1cccnc1[N+](=O)[O-]	inactive
CCOc1cccc(C(=O)NC(=S)Nc2ccc3c(c2)OCCO3)c1	inconclusive: 20.6 µM [activator, partial curve]
CCN(CC)C(=O)CSc1nnc(COc2cccc(C)c2)n1C	inactive
CN(CCCNC(=O)c1cn(C)c2ccc(S(=O)(=O)N(C)C)cc2c1=O)c1ccccc1	inconclusive: 25.9 µM [inhibitor, partial curve, poor fit]
COc1ccc(CNC(=O)CSc2nc3ccc(C)cc3[nH]2)cc1OC	inactive
CCCN(CC(=O)Nc1ccccc1C)C(=O)c1ccc(COc2ccccc2)cc1	inconclusive: 23.1 µM [inhibitor, single point]
CCN(Cc1ccccc1)c1ccc(N=Nc2nn(C)c(C)c2[N+](=O)[O-])cc1	inconclusive: 18.4 µM [activator, partial curve]
O=C(NC1CCCCC1)Oc1ccccc1	inconclusive: 20.6 µM [activator, single point]
CC1(c2ccc(OC(F)F)cc2)NC(=O)N(CC(=O)Nc2ccc(OC(F)F)cc2)C1=O (configuration not stated)	inactive
CC1(C)CC(=O)c2cc(OCC(=O)NCCCN3CCN(c4ccccc4F)CC3)ccc2O1	inconclusive: 20.6 µM [inhibitor, single point]
